Results published in the supplement of paper PMC12823440, “Inhibitors supercharge kinase turnover through native proteolytic circuits” (Nature, 2025).
Structures can show the parent of a compound that is named as a salt. The list shows a part of the results. Hit calls seldom repeat between salt and free forms of one compound.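 Kinases were expressed as nanoluciferase fusions in K562 cells and luminescence was read every 4 h between 2 and 18 h as percent of control, DMSO set to 100% and a positive control to 0%. A time point counts as decreased when the signal drops significantly (2 sigma). The hit call is the authors' own, does not follow from the count of time points alone, and its rule is not shown.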

Amino acid sequences for entries named in this document (tags omitted). A change or cut given only in a name is not applied to a line headed by its entry.
UniProt P10398: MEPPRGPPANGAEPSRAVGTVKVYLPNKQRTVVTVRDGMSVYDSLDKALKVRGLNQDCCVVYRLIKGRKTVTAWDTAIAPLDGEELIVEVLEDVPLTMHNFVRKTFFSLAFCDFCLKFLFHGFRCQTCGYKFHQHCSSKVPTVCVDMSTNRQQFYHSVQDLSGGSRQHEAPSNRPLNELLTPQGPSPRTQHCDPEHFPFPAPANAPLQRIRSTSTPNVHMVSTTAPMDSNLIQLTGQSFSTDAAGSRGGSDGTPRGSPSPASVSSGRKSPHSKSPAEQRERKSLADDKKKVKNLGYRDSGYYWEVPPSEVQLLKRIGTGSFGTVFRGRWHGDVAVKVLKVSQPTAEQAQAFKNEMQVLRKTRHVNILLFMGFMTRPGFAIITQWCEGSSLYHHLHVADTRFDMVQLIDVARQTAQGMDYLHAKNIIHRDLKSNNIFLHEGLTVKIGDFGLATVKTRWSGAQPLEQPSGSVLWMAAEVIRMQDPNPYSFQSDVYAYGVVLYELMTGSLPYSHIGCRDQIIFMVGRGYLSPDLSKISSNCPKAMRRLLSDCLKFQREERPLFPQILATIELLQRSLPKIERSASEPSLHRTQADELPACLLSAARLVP
UniProt O14965: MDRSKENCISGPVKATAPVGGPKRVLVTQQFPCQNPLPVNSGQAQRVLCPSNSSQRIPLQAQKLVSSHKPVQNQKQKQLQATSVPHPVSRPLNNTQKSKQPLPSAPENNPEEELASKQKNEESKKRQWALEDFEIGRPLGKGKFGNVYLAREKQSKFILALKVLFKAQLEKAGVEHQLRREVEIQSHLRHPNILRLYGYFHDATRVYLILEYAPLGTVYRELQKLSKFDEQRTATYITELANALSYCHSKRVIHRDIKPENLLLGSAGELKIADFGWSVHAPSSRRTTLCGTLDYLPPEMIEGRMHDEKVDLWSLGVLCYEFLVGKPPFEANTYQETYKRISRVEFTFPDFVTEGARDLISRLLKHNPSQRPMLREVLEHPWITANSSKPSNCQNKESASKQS

biological target: ARAF (UniProt P10398); assay: number of time points (of 5) at which kinase-Nluc abundance scored as decreased, DMSO-normalised (count); higher = more persistent destabilization; settings: K562; 2-18 h

**Q.** `COc1cc2nccc(Oc3ccc(NC(=O)NC4CC4)c(Cl)c3)c2cc1C(N)=O` [Lenvatinib] (10 µM) was tested. Which “number of time points” value did it give?
**A.** 0

**Q.** Which “number of time points” value does the source give for `Cn1cnc2c(F)c(Nc3ccc(Br)cc3Cl)c(C(=O)NOCCO)cc21` [Selumetinib (sulfate)] (10 µM) here?
**A.** 0

**Q.** How did the “number of time points” value turn out when `CCN1CCN(Cc2ccc(Nc3ncc(F)c(-c4cc(F)c5nc(C)n(C(C)C)c5c4)n3)nc2)CC1` [Abemaciclib] (2 µM) was run?
**A.** 0

**Q.** Which “number of time points” value does the source give for `C[C@@H]1CCN(C(=O)CC#N)C[C@@H]1N(C)c1ncnc2[nH]ccc12` [Tofacitinib (citrate)] (10 µM) here?
**A.** 0

**Q.** With `Cn1nccc1Nc1nccc(-c2ccn([C@H](CO)c3ccc(Cl)c(F)c3)c(=O)c2)n1` [Ravoxertinib] (10 µM) as the compound, how does the “number of time points” value read?
**A.** 0

**Q.** With `COc1cc(Nc2ncc(F)c(Nc3ccc4c(n3)NC(=O)C(C)(C)O4)n2)cc(OC)c1OC` [R406 (free base)] (10 µM) as the compound, how does the “number of time points” value read?
**A.** 0

**Q.** How did the “number of time points” value turn out when `S=C(SSC(=S)N1CCOCC1)N1CCOCC1` (10 µM) was run?
**A.** 0

**Q.** With `CC1CCc2c(cc(Br)c(F)c2Br)N1C=O` (configuration not stated) (10 µM) as the compound, how does the “number of time points” value read?
**A.** 0

**Q.** Which “number of time points” value does the source give for `Cc1[nH]c(/C=C2\C(=O)Nc3ccccc32)c(C)c1CCC(=O)O` [(Z)-Orantinib] (10 µM) here?
**A.** 0

**Q.** For `CCN1CCN(Cc2ccc(Nc3ncc(F)c(-c4cc(F)c5nc(C)n(C(C)C)c5c4)n3)nc2)CC1` [Abemaciclib (methanesulfonate)] (10 µM), which “number of time points” value is on record?
**A.** 0

**Q.** How did the “number of time points” value turn out when `Cn1cnc2c(F)c(Nc3ccc(Br)cc3Cl)c(C(=O)NOCCO)cc21` [Selumetinib] (10 µM) was run?
**A.** 0

**Q.** How did the “number of time points” value turn out when `CCc1cc2c(cc1N1CCC(N3CCOCC3)CC1)C(C)(C)c1[nH]c3cc(C#N)ccc3c1C2=O` [Alectinib] (10 µM) was run?
**A.** 0

**Q.** For `C=C(CC[C@@H](C(=O)O)[C@H]1[C@H](O)C[C@@]2(C)C3=C(CC[C@]12C)[C@@]1(C)CC[C@H](OC(C)=O)C(C)(C)[C@@H]1CC3)C(C)C` [Pachymic acid] (10 µM), which “number of time points” value is on record?
**A.** 0

**Q.** `Cc1[nH]c(/C=C2\C(=O)Nc3ccccc32)c(C)c1CCC(=O)O` [Orantinib] (10 µM) was tested. Which “number of time points” value did it give?
**A.** 0

**Q.** With `C=CC(=O)Nc1ccc(CN2C(=O)N(c3cc(OC)cc(OC)c3)Cc3cnc(Nc4ccc(N5CCN(C)CC5)cc4)nc32)cc1` (2.5 µM) as the compound, how does the “number of time points” value read?
**A.** 0

biological target: AURKA (UniProt O14965); assay: as above; settings: K562; 2-18 h

**Q.** For `C[C@@H]1CCN(C(=O)CC#N)C[C@@H]1N(C)c1ncnc2[nH]ccc12` [Tofacitinib] (10 µM), which “number of time points” value is on record?
**A.** 0

**Q.** How did the “number of time points” value turn out when `CC#CC(=O)N1CC[C@@H](n2c(=O)n(-c3ccc(Oc4ccccc4)cc3)c3c(N)ncnc32)C1` [Tirabrutinib (hydrochloride)] (10 µM) was run?
**A.** 0

**Q.** `Cc1ccc(C(=O)Nc2ccc(Oc3cc4cnn(C)c4cc3-c3cn[nH]c3)c(F)c2)c(=O)n1-c1ccc(F)cc1` [Merestinib] (2.5 µM) was tested. Which “number of time points” value did it give?
**A.** 0

**Q.** Which “number of time points” value does the source give for `Cc1cc(Nc2ncnc3ccc(NC4=NC(C)(C)CO4)cc23)ccc1Oc1ccn2ncnc2c1` [Tucatinib (hemiethanolate)] (2.5 µM) here?
**A.** 0

**Q.** For `C[C@@]1(c2ncncc2F)NC(=O)c2cc(-c3cn[nH]c3)ccc21` (10 µM), which “number of time points” value is on record?
**A.** 0

**Q.** How did the “number of time points” value turn out when `Cc1cc2ncc(-c3ccc(O)c(O)c3)nc2cc1C` [Tyrphostin AG1433] (10 µM) was run?
**A.** 0

**Q.** `C=CC(=O)Nc1cccc(Nc2nc(Nc3ccc(N4CCN(C(C)=O)CC4)cc3OC)ncc2C(F)(F)F)c1` [Rociletinib hydrobromide] (10 µM) was tested. Which “number of time points” value did it give?
**A.** 0

**Q.** `Cc1cc(Nc2ncnc3ccc(NC4=NC(C)(C)CO4)cc23)ccc1Oc1ccn2ncnc2c1` [Tucatinib] (2.5 µM) was tested. Which “number of time points” value did it give?
**A.** 0

**Q.** Which “number of time points” value does the source give for `CCc1cc2c(cc1N1CCC(N3CCOCC3)CC1)C(C)(C)c1[nH]c3cc(C#N)ccc3c1C2=O` [Alectinib (Hydrochloride)] (2 µM) here?
**A.** 0

**Q.** With `Cn1nccc1Nc1nccc(-c2ccn([C@H](CO)c3ccc(Cl)c(F)c3)c(=O)c2)n1` [Ravoxertinib hydrochloride] (10 µM) as the compound, how does the “number of time points” value read?
**A.** 0

**Q.** For `COc1cc2c(N3CCN(C(=O)Nc4ccc(OC(C)C)cc4)CC3)ncnc2cc1OCCCN1CCCCC1` [Tandutinib] (10 µM), which “number of time points” value is on record?
**A.** 0

**Q.** With `CC#CC(=O)N1CC[C@@H](n2c(=O)n(-c3ccc(Oc4ccccc4)cc3)c3c(N)ncnc32)C1` [Tirabrutinib] (10 µM) as the compound, how does the “number of time points” value read?
**A.** 0

**Q.** `C=CC(=O)Nc1cccc(Nc2nc(Nc3ccc(N4CCN(C(C)=O)CC4)cc3OC)ncc2C(F)(F)F)c1` [Rociletinib] (10 µM) was tested. Which “number of time points” value did it give?
**A.** 0

**Q.** Which “number of time points” value does the source give for `COc1cc(Nc2ncc(F)c(Nc3ccc4c(n3)N(COP(=O)(O)O)C(=O)C(C)(C)O4)n2)cc(OC)c1OC` [Fostamatinib Disodium] (10 µM) here?
**A.** 0

**Q.** Which “number of time points” value does the source give for `COc1cc2c(N3CCN(C(=O)Nc4ccc(OC(C)C)cc4)CC3)ncnc2cc1OCCCN1CCCCC1` [Tandutinib (hydrochloride)] (10 µM) here?
**A.** 0

**Q.** With `COc1cc(Nc2ncc(F)c(Nc3ccc4c(n3)N(COP(=O)(O)O)C(=O)C(C)(C)O4)n2)cc(OC)c1OC` [Fostamatinib (disodium hexahydrate)] (10 µM) as the compound, how does the “number of time points” value read?
**A.** 0

**Q.** How did the “number of time points” value turn out when `COc1cc2nccc(Oc3ccc(NC(=O)NC4CC4)c(Cl)c3)c2cc1C(N)=O` [Lenvatinib (mesylate)] (10 µM) was run?
**A.** 0

**Q.** Which “number of time points” value does the source give for `Oc1ccc(Nc2nc(-c3ccc(Cl)cc3)cs2)cc1` (10 µM) here?
**A.** 0

**Q.** `NC(=O)c1nc(Nc2ccccc2)sc1NC(=O)C1CCCCC1` (10 µM) was tested. Which “number of time points” value did it give?
**A.** 0

**Q.** With `CC1=C(C(=O)O)N2C(=O)[C@@H](NC(=O)[C@H](N)C3=CCC=CC3)[C@H]2SC1` [Cephradine] (10 µM) as the compound, how does the “number of time points” value read?
**A.** 0

**Q.** For `Cc1ccc(C(=O)Nc2ccc(Oc3cc4cnn(C)c4cc3-c3cn[nH]c3)c(F)c2)c(=O)n1-c1ccc(F)cc1` [Merestinib dihydrochloride] (2.5 µM), which “number of time points” value is on record?
**A.** 0

**Q.** `Cc1ccc2nc(NCCN)c3ncc(C)n3c2c1` (2.5 µM) was tested. Which “number of time points” value did it give?
**A.** 0

**Q.** Which “number of time points” value does the source give for `CC(=O)NC1CC(n2cnc(NC(=O)Cc3ccc4ccccc4c3)c2)C1` (configuration not stated) (10 µM) here?
**A.** 0

**Q.** With `COc1cc2nccc(Oc3ccc(NC(=O)NC4CC4)c(Cl)c3)c2cc1C(N)=O` [Lenvatinib] (10 µM) as the compound, how does the “number of time points” value read?
**A.** 0

**Q.** Which “number of time points” value does the source give for `Cn1cnc2c(F)c(Nc3ccc(Br)cc3Cl)c(C(=O)NOCCO)cc21` [Selumetinib (sulfate)] (10 µM) here?
**A.** 0

**Q.** How did the “number of time points” value turn out when `CCN1CCN(Cc2ccc(Nc3ncc(F)c(-c4cc(F)c5nc(C)n(C(C)C)c5c4)n3)nc2)CC1` [Abemaciclib] (2 µM) was run?
**A.** 3

**Q.** `C[C@@H]1CCN(C(=O)CC#N)C[C@@H]1N(C)c1ncnc2[nH]ccc12` [Tofacitinib (citrate)] (10 µM) was tested. Which “number of time points” value did it give?
**A.** 0

**Q.** How did the “number of time points” value turn out when `Cn1nccc1Nc1nccc(-c2ccn([C@H](CO)c3ccc(Cl)c(F)c3)c(=O)c2)n1` [Ravoxertinib] (10 µM) was run?
**A.** 0

**Q.** How did the “number of time points” value turn out when `S=C(SSC(=S)N1CCOCC1)N1CCOCC1` (10 µM) was run?
**A.** 3

**Q.** For `CC1CCc2c(cc(Br)c(F)c2Br)N1C=O` (configuration not stated) (10 µM), which “number of time points” value is on record?
**A.** 0

**Q.** For `Cc1[nH]c(/C=C2\C(=O)Nc3ccccc32)c(C)c1CCC(=O)O` [(Z)-Orantinib] (10 µM), which “number of time points” value is on record?
**A.** 0

**Q.** Which “number of time points” value does the source give for `CCN1CCN(Cc2ccc(Nc3ncc(F)c(-c4cc(F)c5nc(C)n(C(C)C)c5c4)n3)nc2)CC1` [Abemaciclib (methanesulfonate)] (10 µM) here?
**A.** 3

**Q.** For `Cn1cnc2c(F)c(Nc3ccc(Br)cc3Cl)c(C(=O)NOCCO)cc21` [Selumetinib] (10 µM), which “number of time points” value is on record?
**A.** 0

**Q.** `CCc1cc2c(cc1N1CCC(N3CCOCC3)CC1)C(C)(C)c1[nH]c3cc(C#N)ccc3c1C2=O` [Alectinib] (10 µM) was tested. Which “number of time points” value did it give?
**A.** 0

**Q.** With `C=C(CC[C@@H](C(=O)O)[C@H]1[C@H](O)C[C@@]2(C)C3=C(CC[C@]12C)[C@@]1(C)CC[C@H](OC(C)=O)C(C)(C)[C@@H]1CC3)C(C)C` [Pachymic acid] (10 µM) as the compound, how does the “number of time points” value read?
**A.** 0

**Q.** How did the “number of time points” value turn out when `Cc1[nH]c(/C=C2\C(=O)Nc3ccccc32)c(C)c1CCC(=O)O` [Orantinib] (10 µM) was run?
**A.** 0

**Q.** For `C=CC(=O)Nc1ccc(CN2C(=O)N(c3cc(OC)cc(OC)c3)Cc3cnc(Nc4ccc(N5CCN(C)CC5)cc4)nc32)cc1` (2.5 µM), which “number of time points” value is on record?
**A.** 0
